Among the data in the supplement of paper PMC10849652 are log2 fold change values, retold here.

Chains of the proteins cited; added tags and fusions are not shown. Lines headed by an entry give the natural chain unless they say otherwise; changes in a name come on top.
UniProt Q9UL54: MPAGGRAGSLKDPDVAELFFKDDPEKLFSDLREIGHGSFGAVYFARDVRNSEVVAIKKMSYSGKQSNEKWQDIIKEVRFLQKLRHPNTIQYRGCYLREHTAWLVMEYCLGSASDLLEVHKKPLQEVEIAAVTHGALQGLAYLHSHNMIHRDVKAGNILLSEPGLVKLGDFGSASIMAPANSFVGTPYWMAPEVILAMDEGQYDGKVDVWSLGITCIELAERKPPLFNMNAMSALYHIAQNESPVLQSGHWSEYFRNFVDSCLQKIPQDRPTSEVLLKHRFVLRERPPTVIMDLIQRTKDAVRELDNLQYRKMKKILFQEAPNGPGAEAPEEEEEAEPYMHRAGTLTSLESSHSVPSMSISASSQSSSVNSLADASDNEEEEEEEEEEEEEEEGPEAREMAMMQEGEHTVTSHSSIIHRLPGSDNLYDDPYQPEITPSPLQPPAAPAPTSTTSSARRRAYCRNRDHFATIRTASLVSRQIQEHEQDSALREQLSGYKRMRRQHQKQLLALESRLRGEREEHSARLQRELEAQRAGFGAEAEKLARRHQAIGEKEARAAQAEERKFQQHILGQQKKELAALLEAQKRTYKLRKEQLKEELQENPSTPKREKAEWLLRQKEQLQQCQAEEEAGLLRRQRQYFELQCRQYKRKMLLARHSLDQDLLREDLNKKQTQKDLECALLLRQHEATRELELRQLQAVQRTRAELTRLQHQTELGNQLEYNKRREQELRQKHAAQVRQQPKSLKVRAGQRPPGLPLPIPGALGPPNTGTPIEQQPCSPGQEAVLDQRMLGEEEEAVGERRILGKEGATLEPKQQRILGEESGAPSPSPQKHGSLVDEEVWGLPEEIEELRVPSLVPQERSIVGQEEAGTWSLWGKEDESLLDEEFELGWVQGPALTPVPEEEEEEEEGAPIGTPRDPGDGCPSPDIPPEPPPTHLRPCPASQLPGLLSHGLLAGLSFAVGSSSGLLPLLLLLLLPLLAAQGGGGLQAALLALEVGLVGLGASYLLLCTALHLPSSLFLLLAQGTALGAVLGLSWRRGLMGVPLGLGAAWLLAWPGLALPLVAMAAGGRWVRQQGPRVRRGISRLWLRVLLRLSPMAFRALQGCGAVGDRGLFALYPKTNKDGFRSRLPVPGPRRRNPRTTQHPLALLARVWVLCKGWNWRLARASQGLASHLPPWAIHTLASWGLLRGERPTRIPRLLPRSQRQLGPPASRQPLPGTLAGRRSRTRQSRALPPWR
UniProt Q9ULQ0: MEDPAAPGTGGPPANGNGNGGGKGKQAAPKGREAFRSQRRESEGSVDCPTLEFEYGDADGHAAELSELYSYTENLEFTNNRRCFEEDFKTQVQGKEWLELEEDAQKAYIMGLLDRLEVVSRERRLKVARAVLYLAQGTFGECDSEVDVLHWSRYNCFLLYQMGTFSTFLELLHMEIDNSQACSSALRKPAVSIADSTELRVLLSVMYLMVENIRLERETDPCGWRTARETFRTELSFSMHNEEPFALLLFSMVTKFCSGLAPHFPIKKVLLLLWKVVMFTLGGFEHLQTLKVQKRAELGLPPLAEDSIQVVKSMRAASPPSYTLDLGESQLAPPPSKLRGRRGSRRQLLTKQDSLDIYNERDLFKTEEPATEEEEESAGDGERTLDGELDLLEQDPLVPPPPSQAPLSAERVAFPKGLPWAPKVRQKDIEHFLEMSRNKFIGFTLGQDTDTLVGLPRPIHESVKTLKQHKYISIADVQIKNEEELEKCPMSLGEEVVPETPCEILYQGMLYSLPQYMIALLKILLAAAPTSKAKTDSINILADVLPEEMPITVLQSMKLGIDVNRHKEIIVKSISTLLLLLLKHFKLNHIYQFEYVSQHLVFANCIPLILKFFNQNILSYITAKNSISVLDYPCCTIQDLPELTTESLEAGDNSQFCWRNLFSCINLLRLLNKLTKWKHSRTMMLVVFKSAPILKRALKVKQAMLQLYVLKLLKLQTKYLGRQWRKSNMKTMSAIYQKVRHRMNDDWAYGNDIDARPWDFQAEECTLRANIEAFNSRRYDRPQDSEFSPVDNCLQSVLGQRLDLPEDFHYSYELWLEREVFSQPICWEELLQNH
UniProt Q9Y6J9: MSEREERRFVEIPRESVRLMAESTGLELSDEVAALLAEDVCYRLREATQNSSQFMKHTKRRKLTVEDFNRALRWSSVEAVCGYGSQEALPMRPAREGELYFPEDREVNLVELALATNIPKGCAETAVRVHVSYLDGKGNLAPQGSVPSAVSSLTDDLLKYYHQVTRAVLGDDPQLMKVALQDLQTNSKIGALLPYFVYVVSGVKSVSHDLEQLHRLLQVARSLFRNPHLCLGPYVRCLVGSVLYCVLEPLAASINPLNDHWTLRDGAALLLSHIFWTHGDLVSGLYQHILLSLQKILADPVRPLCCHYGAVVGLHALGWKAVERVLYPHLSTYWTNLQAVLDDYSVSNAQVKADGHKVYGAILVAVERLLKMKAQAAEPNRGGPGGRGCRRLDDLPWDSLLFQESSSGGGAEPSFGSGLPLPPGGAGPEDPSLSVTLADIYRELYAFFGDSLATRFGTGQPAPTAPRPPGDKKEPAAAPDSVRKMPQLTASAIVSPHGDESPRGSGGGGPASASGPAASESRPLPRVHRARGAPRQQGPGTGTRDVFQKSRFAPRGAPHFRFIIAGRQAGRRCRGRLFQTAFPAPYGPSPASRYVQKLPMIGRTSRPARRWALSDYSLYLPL
UniProt O75486: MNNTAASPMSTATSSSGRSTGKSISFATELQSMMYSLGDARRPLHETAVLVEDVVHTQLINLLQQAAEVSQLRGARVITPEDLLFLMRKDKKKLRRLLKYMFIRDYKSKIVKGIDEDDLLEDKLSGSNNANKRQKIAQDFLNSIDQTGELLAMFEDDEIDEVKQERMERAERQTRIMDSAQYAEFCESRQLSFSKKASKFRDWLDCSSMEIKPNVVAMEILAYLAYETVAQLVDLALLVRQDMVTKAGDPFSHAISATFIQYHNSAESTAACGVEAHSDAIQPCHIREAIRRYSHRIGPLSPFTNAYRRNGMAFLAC
UniProt Q9UK61: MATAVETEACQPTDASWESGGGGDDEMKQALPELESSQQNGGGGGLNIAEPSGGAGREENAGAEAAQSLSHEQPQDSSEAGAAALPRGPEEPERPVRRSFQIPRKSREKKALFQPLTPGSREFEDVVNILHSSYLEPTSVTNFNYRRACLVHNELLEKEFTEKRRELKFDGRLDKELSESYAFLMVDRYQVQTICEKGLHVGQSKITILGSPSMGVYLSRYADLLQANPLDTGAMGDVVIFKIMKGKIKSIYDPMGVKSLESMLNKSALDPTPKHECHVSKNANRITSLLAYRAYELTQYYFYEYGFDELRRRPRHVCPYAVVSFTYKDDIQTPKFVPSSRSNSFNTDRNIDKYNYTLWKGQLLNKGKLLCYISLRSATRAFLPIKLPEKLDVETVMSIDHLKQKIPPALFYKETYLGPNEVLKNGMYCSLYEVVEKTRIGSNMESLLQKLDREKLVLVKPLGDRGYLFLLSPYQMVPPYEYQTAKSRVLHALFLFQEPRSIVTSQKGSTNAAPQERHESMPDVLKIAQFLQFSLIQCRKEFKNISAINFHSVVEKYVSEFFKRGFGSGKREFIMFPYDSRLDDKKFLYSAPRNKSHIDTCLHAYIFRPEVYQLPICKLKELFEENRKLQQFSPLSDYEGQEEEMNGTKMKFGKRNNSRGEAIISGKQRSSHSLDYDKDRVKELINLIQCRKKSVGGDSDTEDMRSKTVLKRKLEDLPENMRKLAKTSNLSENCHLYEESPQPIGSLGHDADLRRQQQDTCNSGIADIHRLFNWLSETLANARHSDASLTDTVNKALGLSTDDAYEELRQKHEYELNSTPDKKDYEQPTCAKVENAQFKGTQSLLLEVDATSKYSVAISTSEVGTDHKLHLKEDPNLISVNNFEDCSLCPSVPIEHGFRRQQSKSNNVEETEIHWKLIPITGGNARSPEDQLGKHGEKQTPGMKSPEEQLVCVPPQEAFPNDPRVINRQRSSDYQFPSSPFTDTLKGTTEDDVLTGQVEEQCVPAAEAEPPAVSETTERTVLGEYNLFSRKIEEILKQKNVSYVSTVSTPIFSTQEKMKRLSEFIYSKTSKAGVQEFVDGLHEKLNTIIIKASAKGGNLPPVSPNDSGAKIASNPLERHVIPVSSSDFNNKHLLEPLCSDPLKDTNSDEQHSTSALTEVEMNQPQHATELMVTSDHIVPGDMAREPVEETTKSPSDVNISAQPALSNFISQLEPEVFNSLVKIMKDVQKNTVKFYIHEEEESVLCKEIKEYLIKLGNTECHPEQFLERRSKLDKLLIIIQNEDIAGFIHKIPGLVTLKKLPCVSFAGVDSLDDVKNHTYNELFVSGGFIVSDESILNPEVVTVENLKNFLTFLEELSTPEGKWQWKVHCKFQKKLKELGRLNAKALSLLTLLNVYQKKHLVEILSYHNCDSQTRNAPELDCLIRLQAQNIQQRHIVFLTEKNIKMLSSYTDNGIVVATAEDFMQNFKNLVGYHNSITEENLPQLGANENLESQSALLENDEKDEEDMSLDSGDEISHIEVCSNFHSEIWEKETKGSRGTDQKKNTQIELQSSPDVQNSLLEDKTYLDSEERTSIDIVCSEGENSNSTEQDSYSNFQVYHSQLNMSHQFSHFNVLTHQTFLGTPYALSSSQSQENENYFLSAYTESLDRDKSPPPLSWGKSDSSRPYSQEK
UniProt Q8N2H4: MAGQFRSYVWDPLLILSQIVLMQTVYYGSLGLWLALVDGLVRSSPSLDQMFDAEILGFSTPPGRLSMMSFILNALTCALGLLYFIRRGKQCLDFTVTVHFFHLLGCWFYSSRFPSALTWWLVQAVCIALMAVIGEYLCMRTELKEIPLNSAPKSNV
UniProt Q15544, whole entry, looked up: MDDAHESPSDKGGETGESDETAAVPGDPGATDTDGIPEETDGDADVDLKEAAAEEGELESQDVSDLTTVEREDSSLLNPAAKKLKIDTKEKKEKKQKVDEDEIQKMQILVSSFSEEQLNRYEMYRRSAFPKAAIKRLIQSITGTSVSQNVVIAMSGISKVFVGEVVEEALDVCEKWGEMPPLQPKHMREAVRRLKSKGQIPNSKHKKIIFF
UniProt Q6P1N9: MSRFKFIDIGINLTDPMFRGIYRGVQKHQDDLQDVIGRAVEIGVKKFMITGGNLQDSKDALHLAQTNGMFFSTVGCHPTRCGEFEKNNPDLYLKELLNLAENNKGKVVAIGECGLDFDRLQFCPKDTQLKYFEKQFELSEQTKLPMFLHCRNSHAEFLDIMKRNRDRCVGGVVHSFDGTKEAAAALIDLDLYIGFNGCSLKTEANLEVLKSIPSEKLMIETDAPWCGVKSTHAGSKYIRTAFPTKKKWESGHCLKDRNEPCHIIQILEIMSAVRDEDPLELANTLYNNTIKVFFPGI
UniProt Q15543, whole entry, looked up: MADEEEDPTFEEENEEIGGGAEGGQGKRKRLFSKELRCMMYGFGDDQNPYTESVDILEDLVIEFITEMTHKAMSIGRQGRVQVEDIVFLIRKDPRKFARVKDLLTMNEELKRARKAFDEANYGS
UniProt Q9NYJ8: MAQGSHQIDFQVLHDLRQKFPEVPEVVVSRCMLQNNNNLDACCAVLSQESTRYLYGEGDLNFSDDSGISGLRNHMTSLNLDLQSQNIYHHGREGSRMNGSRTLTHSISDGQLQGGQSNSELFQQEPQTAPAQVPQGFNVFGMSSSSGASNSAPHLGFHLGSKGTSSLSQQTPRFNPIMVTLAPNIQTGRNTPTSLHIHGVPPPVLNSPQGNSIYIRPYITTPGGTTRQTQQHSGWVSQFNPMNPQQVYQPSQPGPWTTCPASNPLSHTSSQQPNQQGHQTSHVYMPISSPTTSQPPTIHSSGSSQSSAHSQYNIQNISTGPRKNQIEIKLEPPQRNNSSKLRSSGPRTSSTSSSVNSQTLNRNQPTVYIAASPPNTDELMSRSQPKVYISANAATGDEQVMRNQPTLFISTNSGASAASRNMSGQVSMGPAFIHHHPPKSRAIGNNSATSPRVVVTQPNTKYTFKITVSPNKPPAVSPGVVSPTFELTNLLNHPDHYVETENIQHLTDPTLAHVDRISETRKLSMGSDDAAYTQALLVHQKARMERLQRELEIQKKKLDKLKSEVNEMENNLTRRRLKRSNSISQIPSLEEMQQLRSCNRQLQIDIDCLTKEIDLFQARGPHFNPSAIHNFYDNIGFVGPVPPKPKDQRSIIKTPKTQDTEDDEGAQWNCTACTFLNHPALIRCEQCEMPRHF
UniProt Q9UBI4: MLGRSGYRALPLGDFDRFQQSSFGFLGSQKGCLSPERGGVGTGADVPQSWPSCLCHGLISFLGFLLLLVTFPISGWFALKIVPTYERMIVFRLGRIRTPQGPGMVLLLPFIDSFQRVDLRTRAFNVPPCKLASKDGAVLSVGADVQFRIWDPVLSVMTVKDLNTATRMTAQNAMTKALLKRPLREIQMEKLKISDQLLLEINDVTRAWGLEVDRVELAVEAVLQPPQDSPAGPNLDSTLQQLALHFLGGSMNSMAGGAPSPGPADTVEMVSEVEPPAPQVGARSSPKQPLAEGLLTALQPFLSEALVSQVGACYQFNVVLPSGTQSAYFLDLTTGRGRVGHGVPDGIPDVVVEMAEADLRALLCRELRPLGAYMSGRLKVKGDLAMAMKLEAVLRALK

This is one part of the list.

Compound in this assay: CC1=C(C=C(C=C1)NC(=O)C2=CC(=CC=C2)N(C)C)NC(=O)C3=CC=C(C=C3)O
Briefly: log2 fold change, soluble protein after heating vs DMSO (PISA); higher = thermal stabilisation; K562 cells, 10 uM, 30 min; active = over 0.2 and 3.5 SD of the protein, either way, in both replicates (recomputed). The procedure, abridged:
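K562 cells (2×10^6 cells/mL) were treated with 10 μM compound for 30 min, and aliquots were heated for 3 min over 48°C-58°C. Pooled aliquots were extracted in PBS with 0.5% NP-40 at 4°C, and the supernatant after 21,000xg for 90 min was measured by TMTpro 16plex LC-MS/MS with channel sums equalised. Reported thermal stability, relative to control samples and from duplicates, is a log2 fold change.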
In the case of TAOK2 (UniProt Q9UL54), the log2 fold change was inactive: 0.024.
With STON2 isoform 3 (UniProt Q8WXE9) the figure was inactive: 0.02.
Turning to STRIP2 (UniProt Q9ULQ0), the log2 fold change was inactive: 0.008.
The figure for TAF6L (UniProt Q9Y6J9) is inactive: 0.114.
The figure for SUPT3H isoform 4 (UniProt O75486) is inactive: -0.247; for SUN1 isoform 9 (UniProt O94901) it is inactive: 0.047.
As for SUCO (UniProt Q9UBS9), the log2 fold change was inactive: -0.08.
In the case of TACC2 (UniProt O95359), the log2 fold change was inactive: -0.058.
The figure for TACC3 (UniProt C9JWI7) is inactive: 0.023.
With STK36 (UniProt Q9NRP7) the figure was inactive: -0.027.
STYX (UniProt Q8WUJ0): the log2 fold change was inactive: -0.232.
The figure for TASOR (UniProt Q9UK61) is inactive: 0.087; for SYS1 (UniProt Q8N2H4) it is inactive: 0.16.
Turning to TAF11 (UniProt Q15544), the log2 fold change was inactive: 0.046.
With TATDN1 isoform 2 (UniProt Q6P1N9) the figure was inactive: 0.056.
For TAF13 (UniProt Q15543), the log2 fold change was inactive: -0.023.
With TAB2 (UniProt Q9NYJ8) the figure was inactive: -0.101.
On to SUMF1 isoform 3 (UniProt Q8NBK3), for which the log2 fold change is inactive: 0.136.
The figure for SUZ12 (UniProt Q15022) is inactive: 0.021; for SVBP (UniProt Q8N300) it is inactive: -0.006; for TAZ (UniProt Q16635) it is inactive: 0.031.
The figure for TAF5 (UniProt Q15542) is inactive: -0.048; for STOML1 (UniProt Q9UBI4) it is inactive: 0.163; for STK35 (UniProt Q8TDR2) it is inactive: -0.121.
